This passage reports binding results from publication PMC10319324.

These are yes or no findings as the source states them, for the method shown.

This test deals with human PI31 C-terminal domain, residues 152-271 (human) (UniProt Q92530). The test is described as follows: cross-linking; 23 μM protein in 20 mM Hepes (pH 7.8), 20 mM NaCl, 0.05% glutaraldehyde for 15 min on ice; SDS-PAGE and blot against PI31; both purified.

B1: human PI31 C-terminal domain, residues 152-271 (domain or fragment, UniProt Q92530 152-271)
chain: SSPHREFPPATAREVDPLRIPPHHPHTSRQPPWCDPLGPFVVGGEDLDPFGPRRGGMIVDPLRSGFPRALIDPSSGLPNRLPPGAVPPGARFDPFGPIGTSPPGPNPDHLPPPGYDDMYL
On to B1, for which the binding entry is reported as “no binding (tested: 23 μM)”.
